Laboratory results from PMC11371196.
These are yes or no findings as the source states them, for the method shown. Binding seen in cells or lysates may run through a third protein. A yes stands for co-enrichment or nearness to the bait. Other partners may have been found. Sequences can lack the tags named with a protein.

B1: CLV1 (receptor, UniProt Q9SYQ8 25-980)
chain: YTDMEVLLNLKSSMIGPKGHGLHDWIHSSSPDAHCSFSGVSCDDDARVISLNVSFTPLFGTISPEIGMLTHLVNLTLAANNFTGELPLEMKSLTSLKVLNISNNGNLTGTFPGEILKAMVDLEVLDTYNNNFNGKLPPEMSELKKLKYLSFGGNFFSGEIPESYGDIQSLEYLGLNGAGLSGKSPAFLSRLKNLREMYIGYYNSYTGGVPPEFGGLTKLEILDMASCTLTGEIPTSLSNLKHLHTLFLHINNLTGHIPPELSGLVSLKSLDLSINQLTGEIPQSFINLGNITLINLFRNNLYGQIPEAIGELPKLEVFEVWENNFTLQLPANLGRNGNLIKLDVSDNHLTGLIPKDLCRGEKLEMLILSNNFFFGPIPEELGKCKSLTKIRIVKNLLNGTVPAGLFNLPLVTIIELTDNFFSGELPVTMSGDVLDQIYLSNNWFSGEIPPAIGNFPNLQTLFLDRNRFRGNIPREIFELKHLSRINTSANNITGGIPDSISRCSTLISVDLSRNRINGEIPKGINNVKNLGTLNISGNQLTGSIPTGIGNMTSLTTLDLSFNDLSGRVPLGGQFLVFNETSFAGNTYLCLPHRVSCPTRPGQTSDHNHTALFSPSRIVITVIAAITGLILISVAIRQMNKKKNQKSLAWKLTAFQKLDFKSEDVLECLKEENIIGKGGAGIVYRGSMPNNVDVAIKRLVGRGTGRSDHGFTAEIQTLGRIRHRHIVRLLGYVANKDTNLLLYEYMPNGSLGELLHGSKGGHLQWETRHRVAVEAAKGLCYLHHDCSPLILHRDVKSNNILLDSDFEAHVADFGLAKFLVDGAASECMSSIAGSYGYIAPEYAYTLKVDEKSDVYSFGVVLLELIAGKKPVGEFGEGVDIVRWVRNTEEEITQPSDAAIVVAIVDPRLTGYPLTSVIHVFKIAMMCVEEEAAARPTMREVVHMLTNPPKSVANLIAF
B2: RTNLB6 (protein, UniProt Q6DBN4 1-253)
chain: MAEELEKSMHKEESLMEKIADKIHDHDSSSSSDSEHEKPESPSALKAKIYRLFGREKPVHKVLGGGLPADVFLWRDKKLSASVLGVATAIWVLFELVEYHFLSLVCHILIFALAALFLLSNAHAFMNKTPPKIPEIHIKEEHFLMIVSALRNELNQAFVILRSIALGRDLKKFLMVVFGLWIISVVGNWFNFLTLVYICFVVLHTVPMLYEKHEDKVDPVAEKTLKELKKHYMVFDEKVLSKLPVASLKAKLG
B3: HVA22C (protein, UniProt Q9S784 1-184)
chain: MPSNSGDDNVLQVLIKNFDVLALPLVTLVYPLYASVKAIETRSLPEDEQWLTYWVLYALISLFELTFSKPLEWFPIWPYMKLFGICWLVLPQFNGAEHIYKHFIRPFYRDPQRATTKIWYVPHKKFNFFPKRDDDDILTAAEKYMEQHGTEAFERMIVKKDSYERGRSSRGINNHMIFDDDYRY

Experiments:
Assay in all cases: proximity labelling; TurboID fusions under ProUBQ10 in 14-day-old Arabidopsis seedlings, 50 μM biotin for 3 h at room temperature; biotinylated proteins enriched on streptavidin beads, TMT LC-MS/MS; compared with wild-type Col-0 and between baits
[1] = target: T1, PDLP6-TurboID-3xFlag (Arabidopsis thaliana) (UniProt Q9ZU94)
T1 sequence: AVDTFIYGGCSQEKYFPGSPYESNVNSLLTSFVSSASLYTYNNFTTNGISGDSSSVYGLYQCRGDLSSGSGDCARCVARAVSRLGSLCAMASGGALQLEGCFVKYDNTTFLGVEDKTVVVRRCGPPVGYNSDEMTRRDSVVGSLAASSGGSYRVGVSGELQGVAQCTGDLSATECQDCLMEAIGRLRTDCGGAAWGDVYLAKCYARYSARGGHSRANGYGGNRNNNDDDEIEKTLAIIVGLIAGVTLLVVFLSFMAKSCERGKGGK

[2] = target: T2, PDLP5-TurboID-3xFlag (Arabidopsis thaliana) (UniProt Q8GUJ2)
T2 sequence: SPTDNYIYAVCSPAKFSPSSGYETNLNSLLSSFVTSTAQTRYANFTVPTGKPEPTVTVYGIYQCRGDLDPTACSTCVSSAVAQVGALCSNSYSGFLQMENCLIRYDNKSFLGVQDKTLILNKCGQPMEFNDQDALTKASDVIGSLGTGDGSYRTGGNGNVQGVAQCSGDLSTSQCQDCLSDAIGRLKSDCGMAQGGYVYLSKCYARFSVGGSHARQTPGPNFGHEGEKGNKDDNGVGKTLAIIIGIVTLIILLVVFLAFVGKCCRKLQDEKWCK

[3] = target: T3, 3xFlag-TurboID-MCTP3 (Arabidopsis thaliana) (UniProt Q9M2R0)
T3 sequence: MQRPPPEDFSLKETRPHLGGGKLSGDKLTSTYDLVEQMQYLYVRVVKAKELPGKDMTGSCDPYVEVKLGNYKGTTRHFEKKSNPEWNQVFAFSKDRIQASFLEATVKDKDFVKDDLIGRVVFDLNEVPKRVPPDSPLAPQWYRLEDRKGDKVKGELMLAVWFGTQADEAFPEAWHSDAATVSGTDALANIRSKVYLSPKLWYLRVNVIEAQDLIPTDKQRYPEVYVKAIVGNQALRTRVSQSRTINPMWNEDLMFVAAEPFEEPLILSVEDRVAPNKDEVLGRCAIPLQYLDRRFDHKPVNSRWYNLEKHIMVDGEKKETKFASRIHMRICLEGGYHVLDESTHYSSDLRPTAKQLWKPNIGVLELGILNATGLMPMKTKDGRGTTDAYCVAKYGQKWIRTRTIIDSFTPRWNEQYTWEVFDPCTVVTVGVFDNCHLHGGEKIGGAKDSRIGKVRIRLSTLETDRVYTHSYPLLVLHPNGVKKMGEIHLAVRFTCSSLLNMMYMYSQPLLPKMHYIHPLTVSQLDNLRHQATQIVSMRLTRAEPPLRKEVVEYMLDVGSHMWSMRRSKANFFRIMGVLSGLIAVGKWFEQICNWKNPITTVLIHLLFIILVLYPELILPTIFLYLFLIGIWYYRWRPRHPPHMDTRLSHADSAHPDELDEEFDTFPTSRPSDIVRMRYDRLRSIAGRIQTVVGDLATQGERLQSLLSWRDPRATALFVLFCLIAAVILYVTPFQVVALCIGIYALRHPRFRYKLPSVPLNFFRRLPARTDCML

| Binder | binding [1] | binding [2] | binding [3] |
| --- | --- | --- | --- |
| B1 | binds | binds | – |
| B2 | – | – | binds |
| B3 | – | – | binds |
